Experiment: Intrinsic reactivity of the inhibitors (kchem) with βME measured with HPLC
Assay type: physicochemical
Conditions: for reactivity with βME (kchem not reliably determinable): 12 M βME

Row | Compound | reaction with βME (kchem not reliably determinable) (1 mM βME) | reactivity with βME (kchem not reliably determinable)
1 | C=CC(=O)CCCCC(=O)N1CCN(c2nc(-c3cnc(N)nc3C(F)F)nc(N3CCOCC3)n2)CC1 [Compound 1, 1-(4-(4-(2-amino-4-(difluoromethyl)pyrimidin-5-yl)-6-morpholino-1,3,5-triazin-2-yl)piperazin-1-yl)oct-7-ene-1,6-dione] | too rapidly completed reaction | 
2 | CC(C)=CC(=O)N(C)CCCC(=O)N1CCN(c2nc(-c3cnc(N)nc3C(F)F)nc(N3CCOCC3)n2)CC1 [Compound 11, N-(4-(4-(4-(2-amino-4-(difluoromethyl)pyrimidin-5-yl)-6-morpholino-1,3,5-triazin-2-yl)piperazin-1-yl)-4-oxobutyl)-N,3-dimethylbut-2-enamide] |  | lack of reactivity
3 | CC(C)=CC(=O)NCCCC(=O)N1CCN(c2nc(-c3cnc(N)nc3C(F)F)nc(N3CCOCC3)n2)CC1 [Compound 17, N-(4-(4-(4-(2-amino-4-(difluoromethyl)pyrimidin-5-yl)-6-morpholino-1,3,5-triazin-2-yl)piperazin-1-yl)-4-oxobutyl)-3-methylbut-2-enamide] |  | lack of reactivity
